Measurements published in patent publication US20260176358A1.
These are yes or no findings as the source states them, for the method shown. Some results given as binding are weak or reduced against the parent protein; the word gives no strength.

T1: rat CGRP (rat) (UniProt P01256)
T1 sequence (peptide, looked up): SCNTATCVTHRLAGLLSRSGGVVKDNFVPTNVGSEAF


Experiments:
human CGRP (human) = human CGRP (human) (UniProt P06881); assay: ELISA
rat CGRP (rat) = target: T1, rat CGRP (rat); assay: ELISA

binding (human CGRP (human))	binding (rat CGRP (rat))	Binder
binds	binds	C9#-CHI (antibody, human IgG1, kappa, V domains shown) VH: EVQLQQSGPVLVKPGASVKMSCKASGYTFTDYYMNWVKQSLGKSLEWIGVINPYNGRTTYNRKFKGKATLTVDKSSSTAYMELNSLTSEDSAVYYCASLLIRPHYFDYWGQGTTLTVSS VL: DIVMTQSQKFMATSVGDRVSVTCKASQNVGTNVAWYQQKPGQSPKALIYSASYRYSVVPDRFTGSGSGTDFTLTIRNVQSEDLAEYHCQQYNFYPYTFGAGTKLELKR
binds	binds	C9H1L1 (antibody, human IgG1, kappa, V domains shown) VH: EVQLVQSGAEVKKPGASVKVSCKASGYTFTDYYMNWVRQAPGQRLEWMGVINPYNVRTTYNRKFKGRVTITVDKSASTAYMELSSLRSEDTAVYYCASLLIRPHYFDYWGQGTTVTVSS VL: DIQMTQSPSSLSASVGDRVTITCKASQNVGTNVAWYQQKPGKSPKALIYSASYRYSGVPSRFSGSGSGTDFTLTISSLQPEDVATYHCQQYNFYPYTFGQGTKLEIKR
binds	binds	C9H2L1 (antibody, human IgG1, kappa, V domains shown) VH: EVQLVQSGAEVKKPGASVKVSCKASGYTFTDYYMNWVRQAPGQRLEWIGVINPYNVRTTYNRKFKGRATLTVDKSASTAYMELSSLRSEDTAVYYCASLLIRPHYFDYWGQGTTVTVSS VL: DIQMTQSPSSLSASVGDRVTITCKASQNVGTNVAWYQQKPGKSPKALIYSASYRYSGVPSRFSGSGSGTDFTLTISSLQPEDVATYHCQQYNFYPYTFGQGTKLEIKR
binds	binds	C9H4L1 (antibody, human IgG1, kappa, V domains shown) VH: EVQLVQSGAEVKKPGASVKVSCKASGYTFTDYYMNWVRQAPGQRLEWIGVINPYQGRTTYNRKFKGRATLTVDKSASTAYMELSSLRSEDTAVYYCASLLIRPHYFDYWGQGTTVTVSS VL: DIQMTQSPSSLSASVGDRVTITCKASQNVGTNVAWYQQKPGKSPKALIYSASYRYSGVPSRFSGSGSGTDFTLTISSLQPEDVATYHCQQYNFYPYTFGQGTKLEIKR
binds	binds	C9H7L1 (antibody, human IgG1, kappa, V domains shown) VH: EVQLVQSGAEVKKPGASVKVSCKASGYTFTDYYMNWVRQAPGQRLEWMGVINPYTGRTTYNRKFKGRVTITVDKSASTAYMELSSLRSEDTAVYYCASLLIRPHYFDYWGQGTTVTVSS VL: DIQMTQSPSSLSASVGDRVTITCKASQNVGTNVAWYQQKPGKSPKALIYSASYRYSGVPSRFSGSGSGTDFTLTISSLQPEDVATYHCQQYNFYPYTFGQGTKLEIKR
binds	binds	C9H3L1 (antibody, human IgG1, kappa, V domains shown) VH: EVQLVQSGAEVKKPGASVKVSCKASGYTFTDYYMNWVRQAPGQRLEWMGVINPYQGRTTYNRKFKGRVTITVDKSASTAYMELSSLRSEDTAVYYCASLLIRPHYFDYWGQGTTVTVSS VL: DIQMTQSPSSLSASVGDRVTITCKASQNVGTNVAWYQQKPGKSPKALIYSASYRYSGVPSRFSGSGSGTDFTLTISSLQPEDVATYHCQQYNFYPYTFGQGTKLEIKR
binds	binds	C21H2L1 (antibody, human IgG1, kappa, V domains shown) VH: EVQLVQSGAEVKKPGASVKVSCKASGYTFTDYYMNWVRQAPGQRLEWIGDINPNQGGTNYNQKFKGRATLTVDKSASTAYMELSSLRSEDTAVYYCASIIIVPNYFDYWGQGTTVTVSS VL: DIQMTQSPSSLSASVGDRVTITCKASQNVDTNVAWFQQKPGKAPKSLIYSASYRYSGVPSRFSGSGSGTDFTLTISSLQPEDFATYYCQQYNNYPYTFGGGTKVEIKR
binds	binds	C9H5L1 (antibody, human IgG1, kappa, V domains shown) VH: EVQLVQSGAEVKKPGASVKVSCKASGYTFTDYYMNWVRQAPGQRLEWMGVINPYSGRTTYNRKFKGRVTITVDKSASTAYMELSSLRSEDTAVYYCASLLIRPHYFDYWGQGTTVTVSS VL: DIQMTQSPSSLSASVGDRVTITCKASQNVGTNVAWYQQKPGKSPKALIYSASYRYSGVPSRFSGSGSGTDFTLTISSLQPEDVATYHCQQYNFYPYTFGQGTKLEIKR
binds	binds	C21H2L2 (antibody, human IgG1, kappa, V domains shown) VH: EVQLVQSGAEVKKPGASVKVSCKASGYTFTDYYMNWVRQAPGQRLEWIGDINPNQGGTNYNQKFKGRATLTVDKSASTAYMELSSLRSEDTAVYYCASIIIVPNYFDYWGQGTTVTVSS VL: DIQMTQSPSSLSASVGDRVTITCKASQNVDTNVAWFQQKPGKSPKALIYSASYRYSGVPSRFSGSGSGTDFTLTISSLQPEDFATYYCQQYNNYPYTFGGGTKVEIKR
binds	binds	C21H1L1 (antibody, human IgG1, kappa, V domains shown) VH: EVQLVQSGAEVKKPGASVKVSCKASGYTFTDYYMNWVRQAPGQRLEWIGDINPNNVGTNYNQKFKGRATLTVDKSASTAYMELSSLRSEDTAVYYCASIIIVPNYFDYWGQGTTVTVSS VL: DIQMTQSPSSLSASVGDRVTITCKASQNVDTNVAWFQQKPGKAPKSLIYSASYRYSGVPSRFSGSGSGTDFTLTISSLQPEDFATYYCQQYNNYPYTFGGGTKVEIKR
binds	binds	C9H8L1 (antibody, human IgG1, kappa, V domains shown) VH: EVQLVQSGAEVKKPGASVKVSCKASGYTFTDYYMNWVRQAPGQRLEWIGVINPYTGRTTYNRKFKGRATLTVDKSASTAYMELSSLRSEDTAVYYCASLLIRPHYFDYWGQGTTVTVSS VL: DIQMTQSPSSLSASVGDRVTITCKASQNVGTNVAWYQQKPGKSPKALIYSASYRYSGVPSRFSGSGSGTDFTLTISSLQPEDVATYHCQQYNFYPYTFGQGTKLEIKR
binds	binds	C9H6L1 (antibody, human IgG1, kappa, V domains shown) VH: EVQLVQSGAEVKKPGASVKVSCKASGYTFTDYYMNWVRQAPGQRLEWIGVINPYSGRTTYNRKFKGRATLTVDKSASTAYMELSSLRSEDTAVYYCASLLIRPHYFDYWGQGTTVTVSS VL: DIQMTQSPSSLSASVGDRVTITCKASQNVGTNVAWYQQKPGKSPKALIYSASYRYSGVPSRFSGSGSGTDFTLTISSLQPEDVATYHCQQYNFYPYTFGQGTKLEIKR
binds	binds	C21H1L2 (antibody, human IgG1, kappa, V domains shown) VH: EVQLVQSGAEVKKPGASVKVSCKASGYTFTDYYMNWVRQAPGQRLEWIGDINPNNVGTNYNQKFKGRATLTVDKSASTAYMELSSLRSEDTAVYYCASIIIVPNYFDYWGQGTTVTVSS VL: DIQMTQSPSSLSASVGDRVTITCKASQNVDTNVAWFQQKPGKSPKALIYSASYRYSGVPSRFSGSGSGTDFTLTISSLQPEDFATYYCQQYNNYPYTFGGGTKVEIKR
binds	binds	C21#-CHI (antibody, human IgG1, kappa, V domains shown) VH: EVQLQQSGPELVKPGASVRISCKASGYTFTDYYMNWVRQSHRKSLEWIGDINPNNGGTNYNQKFKGKATLTVDKSSSTAYMELRSLTSEDSAVYYCASIIIVPNYFDYWGQGTTLTVSS VL: DIVMTQSQKFMSTSVGDRVSVTCKASQNVDTNVAWFQQRPGQSPKALIYSASYRYSGVPDRFTGSGSGTDFTLTISNVQSEDLADYFCQQYNNYPYTFGGGTKLEIER
binds	binds	C1H1L1 (antibody, human IgG1, kappa, V domains shown) VH: EVQLVQSGAEVKKPGSSVKVSCKASGYTFSTSWMNWVRQAPGQGLEWMGQIYPGDGYTNYSGKFRGRVTITADKSTSTAYMELSSLRSEDTAVYYCAGDYEALWGQGTTVTVSS VL: DIVMTQTPLSLPVTPGEPASISCRSSQSLVHSNGNTYFHWYLQKPGQSPQLLIYEVSNRFSGVPDRFSGSGSGTDFTLKISRVEAEDVGVYYCSQSTHVPFTFGQGTKLEIKR
binds	binds	C1H1L2 (antibody, human IgG1, kappa, V domains shown) VH: EVQLVQSGAEVKKPGSSVKVSCKASGYTFSTSWMNWVRQAPGQGLEWMGQIYPGDGYTNYSGKFRGRVTITADKSTSTAYMELSSLRSEDTAVYYCAGDYEALWGQGTTVTVSS VL: DIVMTQTPLSLPVTPGEPASISCRSSQSLVHSSGNTYFHWYLQKPGQSPQLLIYEVSNRFSGVPDRFSGSGSGTDFTLKISRVEAEDVGVYYCSQSTHVPFTFGQGTKLEIKR
binds	binds	C1#-CHI (antibody, human IgG1, kappa, V domains shown) VH: QVQLQQSGAELVRPGSSVKISCKASGYTFSTSWMNWVKQRPGQGLEWIGQIYPGDGYTNYNGKFRGKATLTADKSSSTAYMQLSSLTSEDSAVYFCAGDYEALWGQGTTLTVSS VL: DVVMTQTPLSLPVSLGDQASISCRSSQSLVHSNGNTYFHWYLQRPGQSPKLLIYEVSNRFSGVPDRFSGSGSGTDFTLKISRVEAEDLGVYFCSQSTHVPFTFGSGTKLEIKR
binds	binds	C1H2L1 (antibody, human IgG1, kappa, V domains shown) VH: EVQLVQSGAEVKKPGSSVKVSCKASGYTFSTSWMNWVRQAPGQGLEWMGQIYPGDGYTNYQGKFRGRVTITADKSTSTAYMELSSLRSEDTAVYYCAGDYEALWGQGTTVTVSS VL: DIVMTQTPLSLPVTPGEPASISCRSSQSLVHSNGNTYFHWYLQKPGQSPQLLIYEVSNRFSGVPDRFSGSGSGTDFTLKISRVEAEDVGVYYCSQSTHVPFTFGQGTKLEIKR
binds	binds	C1H3L1 (antibody, human IgG1, kappa, V domains shown) VH: EVQLVQSGAEVKKPGSSVKVSCKASGYTFSTSWMNWVRQAPGQGLEWMGQIYPGDGYTNYNVKFRGRVTITADKSTSTAYMELSSLRSEDTAVYYCAGDYEALWGQGTTVTVSS VL: DIVMTQTPLSLPVTPGEPASISCRSSQSLVHSNGNTYFHWYLQKPGQSPQLLIYEVSNRFSGVPDRFSGSGSGTDFTLKISRVEAEDVGVYYCSQSTHVPFTFGQGTKLEIKR
binds	binds	C1H3L2 (antibody, human IgG1, kappa, V domains shown) VH: EVQLVQSGAEVKKPGSSVKVSCKASGYTFSTSWMNWVRQAPGQGLEWMGQIYPGDGYTNYNVKFRGRVTITADKSTSTAYMELSSLRSEDTAVYYCAGDYEALWGQGTTVTVSS VL: DIVMTQTPLSLPVTPGEPASISCRSSQSLVHSSGNTYFHWYLQKPGQSPQLLIYEVSNRFSGVPDRFSGSGSGTDFTLKISRVEAEDVGVYYCSQSTHVPFTFGQGTKLEIKR
